# Reference: PubChem BioAssay AID1439 (NMMLSC, 2008)
# Chains of the proteins cited; added tags and fusions are not shown.
# UniProt P09471, whole entry, looked up: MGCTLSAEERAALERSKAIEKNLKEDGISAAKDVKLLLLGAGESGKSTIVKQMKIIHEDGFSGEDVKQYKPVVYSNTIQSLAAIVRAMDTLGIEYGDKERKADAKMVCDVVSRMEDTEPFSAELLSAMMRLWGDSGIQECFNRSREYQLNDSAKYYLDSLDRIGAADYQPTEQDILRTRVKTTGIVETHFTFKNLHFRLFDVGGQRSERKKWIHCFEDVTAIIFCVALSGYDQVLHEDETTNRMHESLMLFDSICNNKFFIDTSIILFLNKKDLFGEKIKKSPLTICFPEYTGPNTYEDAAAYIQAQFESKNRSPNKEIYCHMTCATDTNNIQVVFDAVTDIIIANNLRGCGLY
# Screen size: about 220,000 compounds; about 770 (0.35%) were called active. Inconclusive results, whose numbers are uncertain, are shown with a selection of clear calls. No stated cut-off is given here; in the data, active means binding response below about 49% or above about 150%; inconclusive means no clear call, values can overlap the other calls; inactive means in between.
# Molecular target: Guanine nucleotide-binding protein G(o) subunit alpha (Homo sapiens) (UniProt P09471)
# Test: RGS7-Galphao binding modulators, primary screen, biochemical, multiplexed bead flow cytometry (AID 1439);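 further: fluorescent Galphao held in activated GDP-AlF4 state binding bead-coupled RGS7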
# Conditions: at 10 µM, actives lie on both sides
row,Structure (SMILES),binding response (% of control)
1,Cn1c(SCC(=O)c2ccc(F)cc2)nnc1-c1ccccn1,inconclusive: 139%
2,S=c1[nH]nc(-c2ccn[nH]2)n1-c1ccccc1Cl,inconclusive: 83.9%
3,CCc1ccccc1NC1=CC(=O)CC(C)(C)C1,inactive: 102%
4,CCN(CC)S(=O)(=O)c1ccc(NC(=O)C2c3ccccc3Oc3ccccc32)cc1,inactive: 107%
5,CN(C)C(=O)c1cc(C(=O)c2ccccc2Cl)c[nH]1,inconclusive: 110%
6,CCn1nc(C)c(/C=N/NC(=O)Cn2nnnc2N)c1C,inconclusive: 117%
7,O=C(CCc1ccccc1)NC(=S)Nc1ccc2c(c1)C(=O)OC2,inconclusive: 104%
8,COc1ccc(-c2c(C(F)(F)F)nn(C)c2NC(=O)c2cccnc2)cc1,inconclusive: 104%
9,Cc1cc(C)n(-c2ccc(S(=O)(=O)N3CCCC3)cc2[N+](=O)[O-])n1,inconclusive: -677%
10,CC(C)CNC1CCS(=O)(=O)C1 (stereo not given),inconclusive: 128%
11,COc1ccc(Cn2cnc3c4cc(F)ccc4n(C)c3c2=O)cc1,inconclusive: 224%
12,O=C(c1ccc(Cl)cc1)N1N=C(c2ccccn2)CC1(O)C(F)(F)F (stereo not given),inconclusive: 123%
13,COc1ccc(CCN(CC(=O)NC2CCCC2)C(=O)Cn2nnc(-c3ccc(C)o3)n2)cc1OC,inactive: 99.5%
14,COc1ccc(-c2cc(C(=O)c3c(N)n(C)c(=O)n(C)c3=O)c3ccccc3n2)cc1,inconclusive: 42.4%
15,COCCSc1ccccc1C(=O)N1CCN(c2ccccc2OC)CC1,inconclusive: 62%
16,C/C(N)=C(/C#N)C(=O)COC(=O)c1ccccc1C(=O)c1ccc(C)cc1,inconclusive: 86.4%
17,C=C(C)CN(CC)C(=O)CC1C(=O)NCCN1C (stereo not given),inactive: 87.1%
18,COc1cc(OC)c(C(=O)OCC(=O)Nc2cc(C)on2)cc1OC,inconclusive: 109%
19,CC(NC(N)=O)C(=O)Nc1ccc(Cl)c(S(=O)(=O)Nc2ccc(Br)cc2)c1 (stereo not given),inactive: 117%
20,COC(=O)[C@H](CCSC)NS(=O)(=O)c1ccccc1Br,inconclusive: 95.4%

row,Structure (SMILES),binding response (% of control)
1,CCc1c(-c2ccccc2)[n+](=O)c2c(n1[O-])CCC2,inconclusive: -496%
2,Cc1nc(-c2ccc(S(=O)(=O)N3CCN(Cc4ccccc4)CC3)s2)cs1,inconclusive: 95.7%
3,O=C(Cn1c(CO)nc2ccccc21)NCc1ccc2c(c1)OCO2,inconclusive: -721%
4,O=C(COc1ccc(-c2nnco2)cc1)NC1CCCc2ccccc21 (stereo not given),inactive: 84.8%
5,Cc1noc(C(=O)Nc2cccc(O)c2)c1Cl,inconclusive: 110%
6,NC(=O)c1ccc(NC(=O)CCc2nc3ccccc3s2)cc1,inconclusive: 39.9%
7,CCc1ccc(NC(=O)Cn2nnc(-c3ccc(C)cc3-n3cnnn3)n2)cc1,inconclusive: 103%
8,O=C1CCCC/C1=N\Nc1ccc(C2CCCCC2)cc1,inconclusive: 122%
9,Cc1ccc(OCCNC(=O)C2CCCCC2)cc1,inconclusive: 95.3%
10,CC(O)CNc1cnccn1 (stereo not given),inconclusive: 103%
11,Cc1ccccc1NC(=S)Nc1ccccn1,inconclusive: 85.4%
12,COc1cccc(C2CC(=O)Nc3n[nH]c(-c4ccccc4)c32)c1OC (stereo not given),inconclusive: 107%
13,Nc1cc2c(cc1C(=O)c1cccc(Br)c1)OCCO2,inactive: 103%
14,COc1ccccc1NC(=O)CN1CCN(CC(=O)Nc2ccc3c(c2)OCO3)CC1,inactive: 112%
15,O=C(/C=C/c1ccc(F)cc1)NC(=S)N1CCCCC1c1cccnc1 (stereo not given),inconclusive: 103%
16,CCOC(=O)C1CCN(C(=O)COC(=O)COc2ccc(Cl)cc2)CC1,inconclusive: 80.4%
17,Cc1nnc(SCC(=O)NC2CC2)n1CC1CCCO1 (stereo not given),inactive: 107%
18,Nc1c(C(=O)Nc2ccccc2)c2nc3ccccc3nc2n1-c1ccc(O)cc1,inconclusive: 58.2%
19,COc1nsnc1NS(=O)(=O)c1ccc(NC(=S)NC(=O)c2ccncc2)cc1,inconclusive: 122%
20,CCOc1ccc(C(=O)NCC(=O)OCC(=O)Nc2ccc(C)c(S(=O)(=O)N(C)C)c2)cc1,inconclusive: 112%

# Gathered by group, those above containing a CF3 group (2)
row,Structure (SMILES),binding response (% of control)
8,COc1ccc(-c2c(C(F)(F)F)nn(C)c2NC(=O)c2cccnc2)cc1,inconclusive: 104%
12,O=C(c1ccc(Cl)cc1)N1N=C(c2ccccn2)CC1(O)C(F)(F)F (stereo not given),inconclusive: 123%

# Arranged by length of the SMILES (high to low): part of the list above
row,Structure (SMILES),binding response (% of control)
4,CCN(CC)S(=O)(=O)c1ccc(NC(=O)C2c3ccccc3Oc3ccccc32)cc1,inactive: 107%
16,C/C(N)=C(/C#N)C(=O)COC(=O)c1ccccc1C(=O)c1ccc(C)cc1,inconclusive: 86.4%
5,Cc1noc(C(=O)Nc2cccc(O)c2)c1Cl,inconclusive: 110%

# (list continues)

row,Structure (SMILES),binding response (% of control)
1,COc1ccccc1NC(=O)N1CCN(S(C)(=O)=O)CC1,inconclusive: 95.4%
2,Cc1ccc(NC(=O)NNC(=O)c2snnc2C)cc1,inactive: 95.5%
3,Cc1ccc(CC2CC(=O)N(C(Cc3ccccc3)C(=O)O)C2=O)cc1 (stereo not given),inactive: 121%
4,CC1CN(c2ccc(NS(=O)(=O)c3ccccc3)cc2C(=O)O)CC(C)O1 (stereo not given),inconclusive: 278%
5,N#Cc1cnc(N)c(Br)c1,inactive: 102%
6,CCCC(=O)N/C(N)=N/c1nc(C)c2ccccc2n1,inconclusive: 96%
7,COC(=O)c1cc(N2CCNCC2)nc2ccccc12,inconclusive: 188%
8,O=CN1CCN(c2ncnc3c2nnn3Cc2c(F)cccc2Cl)CC1,inactive: 98.2%
9,COc1ccccc1N=Nc1c(C)noc1C,inconclusive: 3.88%
10,CCOC(=O)NC(=O)CSc1nnnn1-c1ccc(Cl)cc1,inactive: 96.9%
11,O=C(c1ccccc1NS(=O)(=O)c1ccc(Cl)cc1)N1CCc2ccccc21,inactive: 81.4%
12,Cc1ccc(C(c2c(C)[nH][nH]c2=O)c2c(C)[nH][nH]c2=O)cc1[N+](=O)[O-],inactive: 95.3%
13,S=c1nccc(-c2ccc(Cl)cc2)[nH]1,inconclusive: 93.1%
14,C[C@H](NC(=O)OCc1ccccc1)c1nnc([C@H](C)NC(=O)OCc2ccccc2)o1,inconclusive: 109%
15,CCOc1ccc(OCc2ccc(C(=O)N/N=C(\C)c3ccccn3)cc2)cc1,inconclusive: 89.6%
16,Cc1ccc(NC(=O)/C=N/OCC(=O)NCc2ccccc2Cl)cc1,inconclusive: 94%
17,NC(=O)c1ccc(Oc2ccc(Cl)cc2)c([N+](=O)[O-])c1,inconclusive: 149%
18,Cc1ccc(C(=O)NNC(=O)Cn2nnc3ccccc32)cc1,inconclusive: 153%
19,O=C1N/C(=N\S(=O)(=O)Cc2ccccc2)S/C1=C/c1cccc([N+](=O)[O-])c1,inconclusive: 88.7%
20,C/C(=N\O)C1CCCCC1,inconclusive: 73.5%
